Assay [1] addresses human IL-2 (biotin-labeled) (human) (UniProt P60568). Nature of the assay: HTRF. Background: Time-resolved FRET reads energy transfer from a long-lived donor to a nearby acceptor.
Another assay addresses PD-1 (human) (UniProt Q15116). The experiment in a line: HTRF.

Chains of the proteins cited; added tags and fusions are not shown. Residues count along the entry.
UniProt P60568, residues 21-153: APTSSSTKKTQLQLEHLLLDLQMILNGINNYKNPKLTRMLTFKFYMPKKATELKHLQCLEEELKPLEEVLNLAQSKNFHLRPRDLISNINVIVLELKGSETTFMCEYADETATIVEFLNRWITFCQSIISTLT
UniProt Q15116, residues 25-167: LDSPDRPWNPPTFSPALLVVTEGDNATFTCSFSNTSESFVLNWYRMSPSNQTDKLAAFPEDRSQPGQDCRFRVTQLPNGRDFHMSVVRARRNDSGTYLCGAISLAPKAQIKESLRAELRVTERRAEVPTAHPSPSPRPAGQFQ

Binding data for 1 molecule are collected here from patent US20220047714A1.

These are yes or no findings as the source states them, for the method shown. Some entries that bind do so weakly or less than the wild type.

B1: PD1-IL2-R06-E04 (scFv)
scFv: QVQLVQSGAEVKKPGASVKVSCKASGYTFTRYYIHWVRQAPGQGLEWMGWINAYNGDTNYAQKLQGRVTMTRDTSTSTVYMELSSLRSEDTAVYYCARDSYYYDSFDYWGQGTLVTVSSASGGGGSGGGGSGGGGSHASDIQMTQSPSSLSASVGDRVTITCRASQTITDWLAWYQQKPGKAPKLLIYGASNLQGGVPSRFSGSGSGTDFTLTISSLQPEDFATYYCQQYYSSWTFGQGTKVEIK
Consider B1, for which the binding result (in assay [1]; in the assay with PD-1 (human)) was “binds” throughout.
